Assay results as given in the supplement of paper PMC12823440, “Inhibitors supercharge kinase turnover through native proteolytic circuits” (Nature, 2025).
Counter-ions that a name gives are not always drawn. This is one part of the list. Hit calls seldom repeat between salt and free forms of one compound.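 Kinases, fused to nanoluciferase, were expressed in K562 cells; luminescence was measured every 4 h from 2 to 18 h as percent of control (DMSO = 100%, positive control = 0%). A time point is decreased if signal falls significantly (2 sigma). Hits were called by the authors by a rule that is not shown; the count of time points alone does not decide it.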

Protein sequences, listed by entry. Tags and fused reporters are not part of them.
UniProt Q9NYA1, whole entry: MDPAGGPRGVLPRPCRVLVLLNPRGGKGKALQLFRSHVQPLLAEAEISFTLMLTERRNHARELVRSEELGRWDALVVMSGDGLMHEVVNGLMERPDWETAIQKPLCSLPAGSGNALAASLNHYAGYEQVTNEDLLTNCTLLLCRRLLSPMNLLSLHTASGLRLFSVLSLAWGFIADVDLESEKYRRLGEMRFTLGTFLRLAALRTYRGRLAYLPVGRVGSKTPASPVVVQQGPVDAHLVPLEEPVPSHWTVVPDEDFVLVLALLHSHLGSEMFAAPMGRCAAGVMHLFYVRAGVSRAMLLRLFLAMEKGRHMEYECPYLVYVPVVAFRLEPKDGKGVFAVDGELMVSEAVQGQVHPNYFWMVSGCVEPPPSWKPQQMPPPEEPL

The compounds below were run against SPHK1 (UniProt Q9NYA1) (assay: number of time points (of 5) at which kinase-Nluc abundance scored as decreased, DMSO-normalised (count); higher = more persistent destabilization). Conditions: K562; 2-18 h.
With `COc1ccc(Cn2cc(C(=O)N=Nc3c(O)[nH]c4c(C)cccc34)nn2)cc1` [MARK4 inhibitor 1] (10 µM) the “number of time points” value was 1. `COc1cc([N+](=O)[O-])ccc1S(=O)(=O)N1C[C@@H](CN2CCN(c3ccccn3)CC2)[C@H](c2cccc(F)c2)C1` (relative stereo) (10 µM) was tested, and the “number of time points” value was 0. `Cc1cc(Nc2nc(N[C@@H](C)c3ccc(F)cc3)c(C#N)cc2F)n[nH]1` (10 µM) was tested, and the “number of time points” value was 0. With `Cc1ccc(S(=O)(=O)/C=C/C#N)cc1` (10 µM) the “number of time points” value was 0. In the case of `Cc1c(CN2CCN(S(C)(=O)=O)CC2)sc2c(N3CCOCC3)nc(-c3cnc(N)nc3)nc12` (2.5 µM), the “number of time points” value is reported as 1. With `COc1ccc(-c2ccc3c(N4CCOC[C@@H]4C)nc(N4CCOC[C@@H]4C)nc3n2)cc1CO` (2.5 µM) the “number of time points” value was 0. In the case of `CCN(CC)S(=O)(=O)c1ccc(OC)c(N2CCN(C(=O)c3ccc(F)cc3C(F)(F)F)CC2)c1` (10 µM), the “number of time points” value is reported as 0. For `CC1CN(C(=O)Nc2ccc(Cl)c(Cl)c2)C(=Nc2ccc(F)cc2)S1` (configuration not stated) (10 µM), the “number of time points” value was 0. For `COCCO[C@@H]1[C@H](O)[C@@H](CO)O[C@H]1n1cnc2c(=O)[nH]c(N)nc21` [2′-O-(2-Methoxyethyl)guanosine] (10 µM), the “number of time points” value was 0. For `COc1cc(F)c(F)c(Nc2ccc(I)cc2F)c1NS(=O)(=O)C1(C[C@H](O)CO)CC1` [Refametinib] (10 µM), the “number of time points” value was 0. For `CC(C)=CC[C@H](O)C1=CC(=O)c2c(O)ccc(O)c2C1=O` [(-)-Alkannin] (2.5 µM), the “number of time points” value was 0. With `C[C@@]1(O)CCC[C@H]1n1c(=O)c(C(F)F)cc2cnc(NC3CCN(S(C)(=O)=O)CC3)nc21` (2.5 µM) the “number of time points” value was 0. With `CS(=O)(=O)c1ccc(-c2noc(C(F)(F)F)c2-c2ccccc2)cc1` (10 µM) the “number of time points” value was 0. For `COc1ccc2[nH]cc(/C=C3\C(=O)Nc4ccc(NC(=O)CCN5CCCCC5)cc43)c2c1` (2.5 µM), the “number of time points” value was 0. For `O=C(Nc1ccc(F)cc1F)[C@H](NC(=S)Nc1cc(C(F)(F)F)cc(C(F)(F)F)c1)c1ccccc1` (2.5 µM), the “number of time points” value was 0. In the case of `CC(C)CN[C@H]1CS(=O)(=O)C[C@@H]1S(=O)(=O)c1ccc(Cl)cc1` (10 µM), the “number of time points” value is reported as 0. With `COc1ccc(C2CC(c3ccccc3)=NN2c2ccc(S(N)(=O)=O)cc2)cc1` (configuration not stated) (10 µM) the “number of time points” value was 0. In the case of `CC/C=C\C/C=C\C/C=C\CCCCCCCC(=O)O` [α-Linolenic acid] (10 µM), the “number of time points” value is reported as 0. In the case of `O=C(Nc1nc2ccccc2[nH]1)c1cccc(-n2cccc2)c1` (10 µM), the “number of time points” value is reported as 0. With `COc1ncc(-c2nc(N3CCOCC3)nc3c(CN4CCC(C(C)(C)O)CC4)cc(F)cc23)cc1NS(C)(=O)=O` [Linperlisib] (10 µM) the “number of time points” value was 0. `COc1ccc([C@H]2c3[nH]c4ccc(Cl)cc4c3CCN2C(=O)Oc2ccc(Cl)cc2)cc1` (2.5 µM) was tested, and the “number of time points” value was 0. For `COc1c(NC(=O)C(=O)c2ccc(OCCN3CCOCC3)c3ccccc23)cc(C(C)(C)C)cc1NS(C)(=O)=O` (2.5 µM), the “number of time points” value was 0. `COc1ccc([C@@H]2CC(=O)c3c(O)cc(O)cc3O2)cc1O` [Hesperetin] (10 µM) was tested, and the “number of time points” value was 0. `N#Cc1cccc(-c2c[nH]c3ncnc(N4CCOCC4)c23)c1` (10 µM) was tested, and the “number of time points” value was 0. In the case of `C/C(=C1/C(=O)Nc2ccc(NC(N)=O)cc21)c1ccc[nH]1` (10 µM), the “number of time points” value is reported as 0. With `Nc1ncnc2c1c(-c1ccc(Oc3ccccc3)cc1)nn2C1CCNCC1` [N-piperidine Ibrutinib (hydrochloride)] (10 µM) the “number of time points” value was 0. In the case of `N#Cc1ccc2ncnc(NC3CCC(N4CCOCC4)CC3)c2c1` (configuration not stated) (10 µM), the “number of time points” value is reported as 0. For `CC(=O)c1c(C)c2cnc(Nc3ccc(N4CCN(CCCCNC(=O)COc5cccc6c5C(=O)N(C5CCC(=O)NC5=O)C6=O)CC4)cn3)nc2n(C2CCCC2)c1=O` (configuration not stated) (10 µM), the “number of time points” value was 0. `CC(C)=CC(=O)CCC(=O)N1CCN(Cc2cc3nc(-c4cccc5[nH]ncc45)nc(N4CCOCC4)c3s2)CC1` (10 µM) was tested, and the “number of time points” value was 5. In the case of `Cc1ccc(S(=O)(=O)Nc2ccccc2C=Nc2ccccc2NS(=O)(=O)c2ccc(C)cc2)cc1` (10 µM), the “number of time points” value is reported as 0. With `NCCN1CCN(C/C=C/C(=O)N2CCC[C@@H](n3nc(-c4ccc(Oc5ccccc5)cc4)c4c(N)ncnc43)C2)CC1` [Ibrutinib-MPEA] (10 µM) the “number of time points” value was 0. In the case of `O=C(CNC(=O)c1ccc(-c2ccccc2)cc1)NC1CCCc2ccccc21` (configuration not stated) [TAO Kinase inhibitor 1] (10 µM), the “number of time points” value is reported as 0.
